In this assay the target is Nesprin-1 (mouse (endogenous in IIA1.6 B-lymphoma cells)) (UniProt Q6ZWR6). In words: co-IP; IP of endogenous Nesprin-1 with rabbit anti-Nesprin-1 (ab192234; non-specific rabbit IgG as control) from lysates of B cells, resting or activated for different times; IP buffer 10 mM Hepes pH 7.4, 10 mM KCl, 5 mM EDTA, 1% Triton X-100; overnight at 4°C, protein A agarose beads; Western blot.

These are yes or no findings as the source states them, for the method shown. Binding seen in cells or lysates may run through a third protein. Some entries that bind do so weakly or less than the wild type.

B1: Sun-2 (protein, UniProt Q8BJS4 1-731)
chain: MSRRSQRLTRYSQDDNDGGSSSSGASSVAGSQGTVFKDSPLRTLKRKSSNMKHLSPAPQLGPSSDSHTSYYSESVVRESYIGSPRAVSLARSALLDDHLHSEPYWSGDLRGRRRRGTGGSESSKANGLTAESKASEDFFGSSSGYSSEDDLAGYTDSDQHSSGSRLRSAASRAGSFVWTLVTFPGRLFGLLYWWIGTTWYRLTTAASLLDVFVLTRSRHFSLNLKSFLWFLLLLLLLTGLTYGAWHFYPLGLQTLQPAVVSWWAAKESRKQPEVWESRDASQHFQAEQRVLSRVHSLERRLEALAADFSSNWQKEAIRLERLELRQGAAGHGGGSSLSHEDALSLLEGLVSRREATLKEDLRRDTVAHIQEELATLRAEHHQDSEDLFKKIVQASQESEARVQQLKTEWKSMTQEAFQESSVKELGRLEAQLASLRQELAALTLKQNSVADEVGLLPQKIQAARADVESQFPDWIRQFLLGDRGARSGLLQRDEMHAQLQELENKILTKMAEMQGKSAREAAASLGQILQKEGIVGVTEEQVHRIVKQALQRYSEDRIGMVDYALESGGASVISTRCSETYETKTALLSLFGIPLWYHSQSPRVILQPDVHPGNCWAFQGPQGFAVVRLSARIRPTAVTLEHVPKALSPNSTISSAPKDFAIFGFDEDLQQEGTLLGTFAYDQDGEPIQTFYFQASKMATYQVVELRILTNWGHPEYTCIYRFRVHGEPAH
For the molecule B1, the binding result is recorded as “no binding”.

B2: Sun-1 (protein, UniProt Q9D666 1-913)
chain: MDFSRLHTYTPPQCVPENTGYTYALSSSYSSDALDFETEHKLEPVFDSPRMSRRSLRLVTTASYSSGDSQAIDSHISTSRATPAKGRETRTVKQRRSASKPAFSINHLSGKGLSSSTSHDSSCSLRSATVLRHPVLDESLIREQTKVDHFWGLDDDGDLKGGNKAATQGNGELAAEVASSNGYTCRDCRMLSARTDALTAHSAIHGTTSRVYSRDRTLKPRGVSFYLDRTLWLAKSTSSSFASFIVQLFQVVLMKLNFETYKLKGYESRAYESQSYETKSHESEAHLGHCGRMTAGELSRVDGESLCDDCKGKKHLEIHTATHSQLPQPHRVAGAMGRLCIYTGDLLVQALRRTRAAGWSVAEAVWSVLWLAVSAPGKAASGTFWWLGSGWYQFVTLISWLNVFLLTRCLRNICKVFVLLLPLLLLLGAGVSLWGQGNFFSLLPVLNWTAMQPTQRVDDSKGMHRPGPLPPSPPPKVDHKASQWPQESDMGQKVASLSAQCHNHDERLAELTVLLQKLQIRVDQVDDGREGLSLWVKNVVGQHLQEMGTIEPPDAKTDFMTFHHDHEVRLSNLEDVLRKLTEKSEAIQKELEETKLKAGSRDEEQPLLDRVQHLELELNLLKSQLSDWQHLKTSCEQAGARIQETVQLMFSEDQQGGSLEWLLEKLSSRFVSKDELQVLLHDLELKLLQNITHHITVTGQAPTSEAIVSAVNQAGISGITEAQAHIIVNNALKLYSQDKTGMVDFALESGGGSILSTRCSETYETKTALLSLFGVPLWYFSQSPRVVIQPDIYPGNCWAFKGSQGYLVVRLSMKIYPTTFTMEHIPKTLSPTGNISSAPKDFAVYGLETEYQEEGQPLGRFTYDQEGDSLQMFHTLERPDQAFQIVELRVLSNWGHPEYTCLYRFRVHGEPIQ
Take B2: the binding result is “binds”.
